No constants are given. Whether binding was seen depends on the method and setting. In cells and extracts the contact can be indirect. Binding can be weak; no strength is given. Tags and fused reporters may be left off the sequences shown.
What was measured:
Test in all cases: FRET or BRET; FLIM: HeLa cells transfected with BDNF-GFP (donor) cocultured with HeLa, HEK293 or SH-SY5Y cells transfected with tdTomato-tagged receptors or tdTomato-GluA2 (acceptor), fixed with 4% PFA; lifetime of GFP measured pixel by pixel; reference: HeLa cells expressing BDNF-GFP alone
SorCS2-tdTomato (murine) = molecular target: SorCS2-tdTomato (murine)
SorCS3-tdTomato (human) = molecular target: SorCS3-tdTomato (human)
SorCS1b-tdTomato (human) = molecular target: SorCS1b-tdTomato (human)
SorLA-tdTomato (human) = molecular target: SorLA-tdTomato (human)
[1] = molecular target: SorCS1c-α-tdTomato (human)

Measured: binding

B1: BDNF-GFP (ligand, UniProt P23560 19-247)
chain: APMKEANIRGQGGLAYPGVRTHGTLESVNGPKAGSRGLTSLADTFEHVIEELLDEDQKVRPNEENNKDADLYTSRVMLSSQVPLEPPLLFLLEEYKNYLDAANMSMRVRRHSDPARRGELSVCDSISEWVTAADKKTAVDMSGGTVTVLEKVPVSKGQLKQYFYETKCNPMGYTKEGCRGIDKRHWNSQCRTTQSYVRALTMDSKKRIGWRFIRIDTSCVCTLTIKRGR
binds: all assays above

— paper PMC10540051
